# According to PubChem BioAssay AID445 (National Center for Advancing Translational Sciences (NCATS), 2006):
# Some of the results follow. The main result of the screen is listed elsewhere. These columns were measured beside it and carry no call. Compounds called inactive in the main read-out are mostly missing here. The note in brackets gives the kind of curve behind each potency; many fits are weak.
# Assay: IkB Signaling
# Conditions: ABC-DLBCL IkBa-CBG/CBR dual luciferase ratio (green luciferase fused to IkBa over red control in OCI-Ly3 lymphoma cells), 4 h; measured here: control luc red channel unless noted
# How it was run: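 In this assay, an IκBα–CBG68 fusion accumulates when IKK-driven degradation is blocked; native CBR normalizes for cell number. OCI-Ly3 cells were treated 4 h with compound and doxycycline, then green and red light read after Chroma-Glo addition.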
row,SMILES,AC50
1,O=C(NCCc1ccccc1)c1ccc2c(c1)N(Cc1c(F)cccc1Cl)C(=O)CS2,"7.94 µM [falling, full curve]"
2,Cn1c(=O)c(=O)n(C)c2cc(S(=O)(=O)N3CCCC3C(=O)Nc3ccccc3F)ccc21 (configuration not stated),"31.6 µM [falling, single point]"
3,CCCn1nc(C(=O)Nc2cccc(C(=O)OC)c2)c2ccccc2c1=O,"12.6 µM [falling, partial curve]"
4,COc1ccc(NC(=O)CSc2nncn3c2cc2oc(C)cc23)cc1OC,"15.8 µM [falling, partial curve]"
5,Cc1ccc(NC(=O)c2cc3cc(C)ccc3n2C)cc1,"0.0794 µM [rising, full curve, poor fit]"
6,NC(=O)CSc1oc(-c2ccco2)nc1S(=O)(=O)c1ccc(Cl)cc1,"10 µM [falling, partial curve]"
7,O=C(NCCc1ccccc1)c1sc2ncccc2c1-n1cccc1,"25.1 µM [falling, single point]"
8,CCCc1cnc2c(c1SCC(=O)N1CCC(C)CC1)c(=O)n(C)c(=O)n2C,"20 µM [falling, partial curve]"
9,Cc1nn(Cc2ccccc2Cl)c(C)c1NC(=O)c1cc(C(C)C)on1,"10 µM [falling, partial curve]"
10,CCCN1C(=O)c2[nH]nc(-c3ccccc3O)c2C1c1ccc(OCc2ccccc2)c(OC)c1 (configuration not stated),"12.6 µM [falling, partial curve]"
11,COc1ccc(C2=NOC(C(=O)N3CCCc4ccccc43)C2)cc1 (configuration not stated),"25.1 µM [falling, partial curve]"
12,CCCC(=O)Nc1nc2ccc(OC)cc2s1,"10 µM [falling, partial curve]"
13,Cc1ccc(C(=O)Nc2cccc(OCc3cc(=O)n4c5c(sc4n3)CCCC5)c2)cc1,"1.26 µM [falling, full curve]"
14,COc1ccc(Cl)cc1N(C)C(=O)c1ccc2c(=O)n3c(nc2c1)CCCCC3,"12.6 µM [falling, partial curve]"
15,Cc1nc2c(-c3ccccc3)c(C)nn2c(C)c1CCC(=O)N1CCN(c2ccc(F)cc2)CC1,"15.8 µM [falling, partial curve]"
16,COc1cccc(CNC(=O)CCc2c(C)nc3c(c(C)nn3-c3ccc(C)c(C)c3)c2C)c1,"12.6 µM [falling, partial curve]"
17,Cc1cccc(N2CCN(CCCNc3ncnc4onc(-c5ccc(Cl)cc5)c34)CC2C)c1 (configuration not stated),"20 µM [falling, single point]"
18,COc1ccc(CCNC(=O)CCn2c(=O)c3ccccc3n(Cc3cc(C)ccc3C)c2=O)cc1OC,"39.8 µM [rising, partial curve]"
19,CCOc1ccccc1CNC(=O)C1CCN(C(=O)N2CC(CC)Oc3ccc(C)cc32)CC1 (configuration not stated),"20 µM [falling, single point]"
20,O=C(/C=C/c1ccccc1)N1CCN(Cc2cc(=O)n3nc(-c4ccccc4F)sc3n2)CC1,"15.8 µM [falling, partial curve]"
21,COc1ccc(N2CC(NC(=O)/C=C\c3ccccc3)CC2=O)cc1 (configuration not stated),"39.8 µM [falling, single point]"

# Among those listed so far, these have a furan ring, fused or not:
row,SMILES,AC50
4,COc1ccc(NC(=O)CSc2nncn3c2cc2oc(C)cc23)cc1OC,"15.8 µM [falling, partial curve]"
6,NC(=O)CSc1oc(-c2ccco2)nc1S(=O)(=O)c1ccc(Cl)cc1,"10 µM [falling, partial curve]"

# (more compounds)

row,SMILES,AC50
1,O=C(Cn1c(SCCOc2ccccc2)nc2ccccc21)N1CCOCC1,"31.6 µM [rising, partial curve, poor fit]"
2,Cc1cc(OCCn2cc(C(=O)c3cccs3)c3ccccc32)ccc1Cl,"2 µM [falling, partial curve]"
3,Cc1nnc(SCC(=O)c2cc(C)n(-c3ccc4c(c3)OCO4)c2C)s1,"31.6 µM [falling, partial curve]"
4,O=C(Nc1ccc2nc(SCC(=O)N3CCOCC3)sc2c1)c1cccc(Cl)c1,"25.1 µM [falling, partial curve]"
5,Cc1c(C(=O)OCCOc2ccccc2)[nH]c2c1C(=O)CC(c1ccccc1)C2 (configuration not stated),"0.0316 µM [rising, full curve]"
6,COc1ccc(CCNC(=O)c2nnn(-c3ccc4c(c3)OCCO4)c2N)cc1OC,"20 µM [falling, partial curve]"
7,CCc1nnc(SCC(=O)Nc2ccccc2Cl)nc1CC,"1.58 µM [rising, full curve]"
8,CCc1ccc(NCc2cc3cc4c(cc3n(CC(=O)Nc3cccc(OC)c3)c2=O)OCO4)cc1,"12.6 µM [falling, partial curve]"
9,CC(C)COc1ccc(C(=O)NCC2(N3CCN(C)CC3)CCCCC2)cc1,"25.1 µM [falling, partial curve, poor fit]"
10,CCc1ccc2ncc3c(-c4ccccc4)nn(-c4ccccc4)c3c2c1,"10 µM [falling, partial curve]"
11,COc1ccc(N(C(=O)c2ccc(OC)c(OC)c2)S(=O)(=O)c2ccc(Cl)cc2)cc1,"7.94 µM [rising, single point]"
12,COc1cccc(NC(=O)CSc2nnc3scc(-c4ccc(Cl)cc4)n23)c1,"20 µM [falling, partial curve]"
13,C1=C(c2ccc(-c3ccccc3)cc2)Nc2ncnn2C1c1ccco1 (configuration not stated),"25.1 µM [falling, single point]"
14,O=C(NCc1ccco1)c1cc2sccc2n1Cc1ccc(F)cc1,"25.1 µM [falling, partial curve]"
15,CC1=C(C)CS(=O)N(c2ccc(S(N)(=O)=O)cc2)C1 (configuration not stated),"31.6 µM [rising, single point] [measured here: IkB-luc green channel]"
16,Cc1ccc(C2CCN(C(=O)Nc3ccccc3)C2)cc1 (configuration not stated),"12.6 µM [falling, partial curve]"
17,CCCN(CCC)C(=O)Cn1c(=O)n(-c2cccc(OC)c2)c(=O)c2c3c(sc21)CCCC3,"12.6 µM [falling, partial curve]"
18,O=C(CCCCn1c(=O)c2ccccc2n(Cc2ccccc2Cl)c1=O)NCCc1ccccc1,"2.51 µM [rising, partial curve]"
19,O=C(OCc1nc2ccccc2s1)c1cccc(S(=O)(=O)N2CCOCC2)c1,"10 µM [falling, partial curve]"
20,Cc1csc2nc(COC(=O)c3cccc(NC(=O)COc4ccc(Cl)cc4)c3)cc(=O)n12,"3.16 µM [falling, full curve]"
21,O=C(OCc1cc(Cl)ccc1OC(F)F)c1cc(S(=O)(=O)O)ccc1O,"10 µM [falling, partial curve]"

row,SMILES,AC50
1,Cc1ccc2nc(N3CCN(c4cccc(C(F)(F)F)c4)CC3)c3nnnn3c2c1,"3.98 µM [falling, partial curve]"
2,Cc1cc(C)c2cc(CN(Cc3cccs3)Cc3nnnn3CC3CCCO3)c(=O)[nH]c2c1 (configuration not stated),"39.8 µM [falling, single point]"
3,CCN(CC)c1ccc(NC(=O)CCS(=O)(=O)c2cc3c(cc2Cl)NC(=O)CO3)c(C)c1,"10 µM [falling, partial curve]"
4,O=C(Nc1c(C(=O)Nc2ccc3c(c2)OCCO3)cnn1-c1ccccc1Cl)c1ccco1,"10 µM [falling, partial curve]"
5,Cc1ccc(-c2cc(C(=O)NCc3ccco3)c3ccccc3n2)o1,"25.1 µM [rising, partial curve] [measured here: IkB-luc green channel]"
6,CCN(C(=O)CSc1nc2ncccc2[nH]1)c1ccc(C(C)C)cc1,"39.8 µM [falling, single point]"
7,O=C(COc1ccc(Cl)cc1)Nc1nnc(S(=O)(=O)N2CCc3ccccc32)s1,"12.6 µM [falling, partial curve]"
8,CCOc1ccc(NC(=O)c2cnc(N3CCCC3)nc2C)cc1,"39.8 µM [falling, partial curve]"
9,COc1ccc(CNc2nc3c(-c4cccc(C)c4)nnn3c3ccccc23)cc1,"0.794 µM [falling, partial curve]"
10,CCOc1ccc(CCNC(=O)c2cn(C)c3ccc(S(=O)(=O)N4CCCCCC4)cc3c2=O)cc1OCC,"3.98 µM [rising, partial curve]"
11,CC(C)c1ccc(NC(=O)Cn2cc(S(=O)(=O)N3CCN(c4ccccc4F)CC3)c3ccccc3c2=O)cc1,"2 µM [falling, full curve]"
12,O=C(c1ccc2c(c1)N(Cc1cccc(F)c1)C(=O)c1ccccc1S2)N1CCOCC1,"15.8 µM [falling, partial curve]"
13,COc1ccc(/C=C/C(=O)Nc2ccc3nc4c(c(Nc5ccccc5OC)c3c2)CCCC4)cc1,"3.16 µM [falling, full curve]"
14,CC(=O)N1c2c(cc(Br)cc2S(=O)(=O)N2CCN(c3cc(C)ccc3C)CC2)CC1C (configuration not stated),"10 µM [falling, partial curve]"
15,Cc1ccccc1CN1C(=O)c2ccccc2S(=O)c2ccc(C(=O)NC3CCC(C)CC3)cc21 (configuration not stated),"10 µM [falling, partial curve]"
16,Cc1cc(Oc2ccccc2)nc2ccc(O)cc12,"0.2 µM [rising, full curve, poor fit]"
17,COc1ccc(C2SCCN2S(=O)(=O)c2ccc(F)cc2)cc1OC (configuration not stated),"39.8 µM [falling, single point]"
18,CC(Oc1ccc(F)cc1)C(=O)N1CCC(c2nc3ccccc3s2)CC1 (configuration not stated),"15.8 µM [falling, partial curve]"
19,Cc1cc(C)cc(NC(=O)C(Cc2ccccc2)NS(=O)(=O)c2ccc3c(c2)c(=O)n(C)c(=O)n3C)c1 (configuration not stated),"20 µM [falling, partial curve]"
20,COc1ccccc1N1CCN(C(=O)c2nc(SC)ncc2Cl)CC1,"3.98 µM [rising, full curve]"

# A run of entries taken from the entries so far, as a working copy:
row,SMILES,AC50
18,CC(Oc1ccc(F)cc1)C(=O)N1CCC(c2nc3ccccc3s2)CC1 (configuration not stated),"15.8 µM [falling, partial curve]"
19,Cc1cc(C)cc(NC(=O)C(Cc2ccccc2)NS(=O)(=O)c2ccc3c(c2)c(=O)n(C)c(=O)n3C)c1 (configuration not stated),"20 µM [falling, partial curve]"
